No constants are given. Whether binding was seen depends on the method and setting. Some results given as binding are weak or reduced against the parent protein; the word gives no strength.
Experiments:
[1] = target: T1, human elk ligand (elk-L), clone E7, expressed on transfected CV-1/EBNA-1 cells (human) (UniProt P98172); test: slide autoradiography; elk/Fc on transfected CV-1/EBNA-1 cells, detected with 125I-mouse anti-human Fc antibody
T1 sequence: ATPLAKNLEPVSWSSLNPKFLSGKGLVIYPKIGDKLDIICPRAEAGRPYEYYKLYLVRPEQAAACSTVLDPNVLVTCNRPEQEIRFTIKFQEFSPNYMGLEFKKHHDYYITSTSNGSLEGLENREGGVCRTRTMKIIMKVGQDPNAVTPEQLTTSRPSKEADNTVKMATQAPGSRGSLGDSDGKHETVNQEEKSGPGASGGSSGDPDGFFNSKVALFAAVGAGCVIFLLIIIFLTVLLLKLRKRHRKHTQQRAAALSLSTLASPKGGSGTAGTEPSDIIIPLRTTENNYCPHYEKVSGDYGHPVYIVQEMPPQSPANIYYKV

Protein sequences, listed by entry. Tags and fused reporters are not part of them. Lines headed by an entry give the natural chain unless they say otherwise; changes in a name come on top.
UniProt P09759: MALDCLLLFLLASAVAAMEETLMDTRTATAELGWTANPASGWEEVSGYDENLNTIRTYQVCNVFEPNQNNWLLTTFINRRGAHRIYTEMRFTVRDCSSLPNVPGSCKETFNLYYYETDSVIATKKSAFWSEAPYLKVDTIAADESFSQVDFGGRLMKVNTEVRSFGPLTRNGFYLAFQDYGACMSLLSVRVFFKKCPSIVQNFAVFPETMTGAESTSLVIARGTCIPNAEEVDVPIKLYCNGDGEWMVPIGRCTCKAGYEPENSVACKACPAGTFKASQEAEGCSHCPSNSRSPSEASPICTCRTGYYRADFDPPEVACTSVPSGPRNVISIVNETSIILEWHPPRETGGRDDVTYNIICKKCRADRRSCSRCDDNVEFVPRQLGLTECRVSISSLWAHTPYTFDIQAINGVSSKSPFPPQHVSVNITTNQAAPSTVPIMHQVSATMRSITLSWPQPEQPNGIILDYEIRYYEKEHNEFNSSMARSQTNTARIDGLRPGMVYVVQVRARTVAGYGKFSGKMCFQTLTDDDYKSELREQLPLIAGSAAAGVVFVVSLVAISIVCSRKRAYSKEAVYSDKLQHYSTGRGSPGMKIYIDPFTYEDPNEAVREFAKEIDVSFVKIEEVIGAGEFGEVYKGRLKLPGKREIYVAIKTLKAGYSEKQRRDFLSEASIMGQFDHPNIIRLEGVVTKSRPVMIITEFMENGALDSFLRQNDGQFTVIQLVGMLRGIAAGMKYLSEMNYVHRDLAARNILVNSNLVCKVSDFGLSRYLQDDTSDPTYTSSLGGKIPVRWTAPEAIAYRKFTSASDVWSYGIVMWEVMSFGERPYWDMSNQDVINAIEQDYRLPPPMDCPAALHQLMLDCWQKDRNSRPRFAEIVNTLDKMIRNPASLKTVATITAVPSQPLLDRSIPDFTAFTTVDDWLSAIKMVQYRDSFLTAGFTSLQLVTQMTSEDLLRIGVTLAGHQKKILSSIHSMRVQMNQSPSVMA
UniProt P29320: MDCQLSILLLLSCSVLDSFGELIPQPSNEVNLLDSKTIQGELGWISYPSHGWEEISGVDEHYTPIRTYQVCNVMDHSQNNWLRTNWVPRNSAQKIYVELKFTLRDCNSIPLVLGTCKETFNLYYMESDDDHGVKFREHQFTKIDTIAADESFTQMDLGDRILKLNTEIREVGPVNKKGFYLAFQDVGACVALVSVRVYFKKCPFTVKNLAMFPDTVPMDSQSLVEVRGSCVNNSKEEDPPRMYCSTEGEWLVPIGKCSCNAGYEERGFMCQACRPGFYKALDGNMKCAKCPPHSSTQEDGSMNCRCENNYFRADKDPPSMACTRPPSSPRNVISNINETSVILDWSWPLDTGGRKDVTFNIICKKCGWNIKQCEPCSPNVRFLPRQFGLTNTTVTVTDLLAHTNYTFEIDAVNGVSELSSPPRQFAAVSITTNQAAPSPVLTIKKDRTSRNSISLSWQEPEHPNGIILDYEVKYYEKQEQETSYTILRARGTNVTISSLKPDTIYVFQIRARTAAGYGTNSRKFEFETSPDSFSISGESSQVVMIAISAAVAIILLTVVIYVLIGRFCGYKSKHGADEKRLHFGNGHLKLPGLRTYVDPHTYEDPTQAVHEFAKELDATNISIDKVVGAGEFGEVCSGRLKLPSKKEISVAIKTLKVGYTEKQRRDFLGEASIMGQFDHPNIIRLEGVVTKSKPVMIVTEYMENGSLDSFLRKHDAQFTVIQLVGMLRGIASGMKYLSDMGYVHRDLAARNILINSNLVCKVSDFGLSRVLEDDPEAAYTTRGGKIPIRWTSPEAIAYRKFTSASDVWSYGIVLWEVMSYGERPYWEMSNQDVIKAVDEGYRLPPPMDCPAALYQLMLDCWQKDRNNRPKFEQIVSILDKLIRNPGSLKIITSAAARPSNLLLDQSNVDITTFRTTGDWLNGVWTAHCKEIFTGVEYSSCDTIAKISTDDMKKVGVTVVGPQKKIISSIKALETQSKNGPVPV

[2] = target: T2, hek-L protein designated A2, expressed on transfected CV-1/EBNA-1 cells (UniProt P52797); test: indirect Scatchard analysis on transfected CV-1/EBNA-1 cells
T2 sequence (looked up): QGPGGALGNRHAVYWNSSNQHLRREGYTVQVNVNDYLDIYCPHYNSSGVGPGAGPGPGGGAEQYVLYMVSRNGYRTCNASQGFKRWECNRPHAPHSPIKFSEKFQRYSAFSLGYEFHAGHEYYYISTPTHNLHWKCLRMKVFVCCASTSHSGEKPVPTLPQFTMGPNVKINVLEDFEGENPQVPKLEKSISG

[3] = target: T3, hek-L protein designated C6, expressed on transfected CV-1/EBNA-1 cells (UniProt P52798); test: as above
T3 sequence (looked up): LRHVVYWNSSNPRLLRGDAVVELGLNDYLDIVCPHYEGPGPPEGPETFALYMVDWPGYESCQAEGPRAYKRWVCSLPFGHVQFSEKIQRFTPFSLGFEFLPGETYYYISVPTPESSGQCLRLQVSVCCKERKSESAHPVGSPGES

[4] = target: B61 protein expressed on transfected CV-1/EBNA-1 cells (human) (UniProt P20827); test: as above
[5] = target: T1, human elk ligand (elk-L), clone E7, expressed on transfected CV-1/EBNA-1 cells (human); test: indirect Scatchard analysis; elk/Fc titrated on transfected CV-1/EBNA-1 cells, detected with 125I-mouse anti-human IgG
[6] = target: T1, human elk ligand (elk-L), clone E7, expressed on transfected CV-1/EBNA-1 cells (human); test: indirect Scatchard analysis on transfected CV-1/EBNA-1 cells

Row | binding [1] | binding [2] | binding [3] | binding [4] | binding [5] | binding [6] | Substance
1 | binds | binds | binds | binds | binds | – | soluble rat elk/Fc fusion protein (from UniProt P09759 18-540; P01857 99-330)
2 | – | binds | binds | binds | – | binds | soluble hek/Fc fusion protein (from UniProt P29320 21-541; P01857 99-330)

Reference: patent US20040022767A1 (Genentech, published 2004)
